# In PubChem BioAssay AID328 (DTP/NCI, 2004):
# The list does not hold the whole screen: it is rich in T/C values a quarter to a half above the control, in often repeated tests (any T/C) and in doses without a T/C. Other doses and runs of a compound stand elsewhere. T/C gives the treated animals as a percentage of the vehicle group. Some doses have a count of surviving animals in place of a T/C: the source files T/C as zero there, which appears to mark a toxic dose or a test without result, not a measured value. Some survivor counts are full or nearly so, which does not show that the dose was tolerated: the source hardly ever lists a survival T/C far under the control, and the zero likely stands for such cases as well. Survivors were counted at the toxicity check, usually on the fifth day, unless a day is given; later deaths do not show. Schedule codes are those of the source, taken here to give the interval after Q, in days (D) or hours (H), and the number of doses after X. Some entries were tested several times; the values are given in rising order. For survival time, the PubChem record calls one and a half times the control and up active, and a quarter to a half above the control has no call in these data; cut-offs in other NCI protocols can differ. Counts like (3×) say how often a value occurs here. Some T/C values are followed by the survivors on the day toxicity was checked, most often the fifth; where none is given, no animal had died by that day.
# Test system: BDF1 mice, P388 leukemia ip, median survival T/C
# Assay: NCI In Vivo Anticancer Drug Screen. Data for tumor model P388 Leukemia (intraperitoneal) in B6D2F1 (BDF1) mice
# Conditions: T/C endpoint: median survival time, higher T/C = longer survival
# Procedure, shortened: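 Transplantable tumour in mice; compound vs vehicle dosing; survival scored; ratio of treated to control reported.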
# [1] = dose: 400.0 mg/kg/injection, schedule: Q01DX009 (ip), vehicle: saline
# [2] = dose: 400.0 mg/kg/injection, schedule: Q04DX003 (ip), vehicle: Klucel (hydroxypropylcellulose) (HPC)
# [3] = dose: 200.0 mg/kg/injection, schedule: Q01DX009 (ip), vehicle: Klucel (hydroxypropylcellulose) (HPC)
# [4] = dose: 400.0 mg/kg/injection, schedule: Q01DX009 (ip), vehicle: Klucel (hydroxypropylcellulose) (HPC)
# [5] = dose: 12.5 mg/kg/injection, schedule: Q01DX009 (ip), vehicle: saline with Tween-80
# [6] = dose: 200.0 mg/kg/injection, schedule: Q01DX009 (ip), vehicle: saline with Tween-80
structure (smiles),measurement,setting,value
COc1cccc2c1C(=O)c1c(O)c3c(c(O)c1C2=O)C[C@@](O)(C(C)=O)C[C@@H]3OC1CC(NC(=O)c2ccncc2)C(O)C(C)O1 (some centres not stated),T/C,"dose: 0.78 mg/kg/injection, schedule: Q01DX009 (ip), vehicle: water",129 % of control
same,T/C,"dose: 1.56 mg/kg/injection, schedule: Q01DX009 (ip), vehicle: water",140 % of control
same,T/C,"dose: 25.0 mg/kg/injection, schedule: Q01DX009 (ip), vehicle: water",140 % of control
COc1ccc(C=[N+](C)CCc2ccc(OC)c(OC)c2)cc1OC,survivor count,[1],1 of 6
Cc1ccc(NCC(O)CN2CCOCC2)cc1 (configuration not stated),survivor count,"dose: 200.0 mg/kg/injection, schedule: Q04DX003 (ip), vehicle: Klucel (hydroxypropylcellulose) (HPC)",0 of 6
same,survivor count,[2],0 of 6
CCCC[N+](CCCC)(CCCC)CCCC.Cc1ccc([SH2+])c([SH2+])c1.Cc1ccc([SH2+])c([SH2+])c1.[Fe+3],T/C,"dose: 100.0 mg/kg/injection, schedule: Q04DX003 (ip), vehicle: Klucel (hydroxypropylcellulose) (HPC)","127, 130, 131 % of control"
same,survivor count,"dose: 300.0 mg/kg/injection, schedule: Q04DX003 (ip), vehicle: Klucel (hydroxypropylcellulose) (HPC)",5 of 6
same,T/C,[2],135 % of control [5 of 6 alive]
same,survivor count,[2],4 of 6
Nc1ccn(C2CC(O)C(CO)O2)c(=O)n1 (configuration not stated),T/C,"dose: 4.6 mg/kg/injection, schedule: Q01DX009 (ip), vehicle: water",144 % of control
CCOC1=C(N2CC2)C(=O)C(OCC)=C(N2CC2)C1=O,T/C,"dose: 0.15 mg/kg/injection, schedule: Q01DX009 (ip), vehicle: saline with Tween-80",132 % of control
same,T/C,"dose: 0.31 mg/kg/injection, schedule: Q04DX003 (ip), vehicle: saline",127 % of control
same,T/C,"dose: 1.25 mg/kg/injection, schedule: Q04DX003 (ip), vehicle: saline",127 % of control
same,survivor count,"dose: 5.0 mg/kg/injection, schedule: Q04DX003 (ip), vehicle: saline",0 of 6
same,survivor count,"dose: 10.0 mg/kg/injection, schedule: Q04DX003 (ip), vehicle: saline",0 of 6
same,survivor count,"dose: 20.0 mg/kg/injection, schedule: Q04DX003 (ip), vehicle: saline",0 of 6
CN=C(c1ccc(NC(=O)c2ccc(C(=O)Nc3ccc(C(=NC)N(C)C)cc3)cc2)cc1)N(C)C,survivor count,"dose: 8.0 mg/kg/injection, schedule: Q01DX010 (ip), vehicle: water",3 of 6
same,survivor count,"dose: 16.0 mg/kg/injection, schedule: Q01DX010 (ip), vehicle: water",0 of 6
C[n+]1c(-c2cccc3ccccc23)c2cc([N+](=O)[O-])ccc2c2ccccc21,T/C,"dose: 2.0 mg/kg/injection, schedule: Q04DX003 (ip), vehicle: water",126 % of control
same,T/C,"dose: 4.0 mg/kg/injection, schedule: Q04DX003 (ip), vehicle: water",126 % of control
same,T/C,"dose: 8.0 mg/kg/injection, schedule: Q01DX009 (ip), vehicle: water",141 % of control
same,T/C,"dose: 16.0 mg/kg/injection, schedule: Q01DX009 (ip), vehicle: water",138 % of control
same,T/C,"dose: 16.0 mg/kg/injection, schedule: Q04DX003 (ip), vehicle: water",132 % of control
same,T/C,"dose: 32.0 mg/kg/injection, schedule: Q04DX003 (ip), vehicle: water",126 % of control
O=C1NC(c2cccc3ccccc23)Nc2ccc(Cl)cc21 (configuration not stated),T/C,"dose: 25.0 mg/kg/injection, schedule: Q01DX009 (ip), vehicle: Klucel (hydroxypropylcellulose) (HPC)",135 % of control
same,survivor count,[3],5 of 6
same,survivor count,[4],0 of 6
NC(=O)SCC(=O)Nc1ccc2ncccc2c1,T/C,"dose: 200.0 mg/kg/injection, schedule: Q01DX009 (ip), vehicle: saline",131 % of control [5 of 6 alive]
same,T/C,"dose: 300.0 mg/kg/injection, schedule: Q01DX009 (ip), vehicle: saline",127 % of control
CCO/C=C1\SC(=S)N(Cc2ccccc2)C1=O,survivor count,"dose: 50.0 mg/kg/injection, schedule: Q01DX009 (ip), vehicle: other",3 of 6
same,T/C,"dose: 66.0 mg/kg/injection, schedule: Q04DX003 (ip), vehicle: other",127 % of control
same,survivor count,"dose: 66.0 mg/kg/injection, schedule: Q04DX003 (ip), vehicle: saline + alcohol",6 of 6
same,T/C,"dose: 66.0 mg/kg/injection, schedule: Q04DX003 (ip), vehicle: saline with Tween-80",136 % of control
same,T/C,"dose: 100.0 mg/kg/injection, schedule: Q04DX003 (ip), vehicle: other",127 % of control (2×)
same,T/C,"dose: 100.0 mg/kg/injection, schedule: Q04DX003 (ip), vehicle: saline with Tween-80",127 % of control
same,survivor count,"dose: 200.0 mg/kg/injection, schedule: Q04DX003 (ip), vehicle: other",6 of 6
same,survivor count,"dose: 400.0 mg/kg/injection, schedule: Q04DX003 (ip), vehicle: other",3 of 6
C=Cn1ccnc1C.C=Cn1ccnc1C.CC(=O)CC(C)=O.CC(=O)CC(C)=O.[Ni],survivor count,"dose: 100.0 mg/kg/injection, schedule: Q04DX002 (ip), vehicle: saline with Tween-80",1 of 6
same,survivor count,"dose: 200.0 mg/kg/injection, schedule: Q04DX002 (ip), vehicle: saline with Tween-80",0 of 6
same,survivor count,"dose: 400.0 mg/kg/injection, schedule: Q04DX002 (ip), vehicle: saline with Tween-80",0 of 6
Nc1ccccc1SC1CC(=O)N(c2ccc(Br)c(Cl)c2)C1=O (configuration not stated),survivor count,"dose: 0.75 mg/kg/injection, schedule: Q01DX005 (ip), vehicle: saline with Tween-80",5 of 5
CS(=O)(=O)c1ncc(Br)cn1,survivor count,[1],6 of 6
CCC[CH2][Sn]([Cl])([Cl])[CH2]CCC,survivor count,"dose: 6.25 mg/kg/injection, schedule: Q01DX009 (ip), vehicle: saline with Tween-80",3 of 6
same,survivor count,[5],0 of 6
same,survivor count,"dose: 25.0 mg/kg/injection, schedule: Q01DX009 (ip), vehicle: saline with Tween-80",0 of 6
same,survivor count,"dose: 50.0 mg/kg/injection, schedule: Q01DX009 (ip), vehicle: saline with Tween-80",0 of 6
same,survivor count,"dose: 100.0 mg/kg/injection, schedule: Q01DX009 (ip), vehicle: saline with Tween-80",0 of 6
CCCCCCCCCCCCCCCC(=O)OCC1OC(CO)(OC2OC(CO)C(O)C(O)C2O)C(O)C1O (configuration not stated),survivor count,[2],2 of 6
O=[N+]([O-])c1cnc2ccnn2c1,survivor count,[3],6 of 6
same,survivor count,[4],4 of 6
O=c1[nH]cnc2c1ncn2C1OC(CF)C(O)C1O (configuration not stated),survivor count,"dose: 100.0 mg/kg/injection, schedule: Q04DX003 (ip), vehicle: saline",6 of 6
same,survivor count,"dose: 200.0 mg/kg/injection, schedule: Q04DX003 (ip), vehicle: saline",6 of 6
same,survivor count,"dose: 400.0 mg/kg/injection, schedule: Q04DX003 (ip), vehicle: saline",6 of 6
CS(C)=O.CS(C)=O.[Cl][Rh]([Cl])([Cl])[Cl],T/C,"dose: 25.0 mg/kg/injection, schedule: Q01DX009 (ip), vehicle: saline",130 % of control
same,T/C,"dose: 50.0 mg/kg/injection, schedule: Q01DX009 (ip), vehicle: saline",130 [5 of 6 alive] and 133 % of control
same,survivor count,"dose: 75.0 mg/kg/injection, schedule: Q01DX009 (ip), vehicle: saline",4 of 6 and 5 of 6
CC(=N\O)/C(=N\O)C(=O)c1ccccc1,survivor count,"dose: 200.0 mg/kg/injection, schedule: Q01DX009 (ip), vehicle: other",5 of 6
same,survivor count,"dose: 400.0 mg/kg/injection, schedule: Q01DX009 (ip), vehicle: other",4 of 6
C[C@]12CC[C@H]3[C@@H](CCC4=CC(=O)CC[C@@]43C)[C@@H]1CC[C@@H]2OC(=O)Cc1ccc(N(CCCl)CCCl)cc1,T/C,[6],131 % of control
same,T/C,"dose: 256.0 mg/kg/injection, schedule: Q01DX009 (ip), vehicle: Klucel (hydroxypropylcellulose) (HPC)",144 % of control
same,T/C,"dose: 512.0 mg/kg/injection, schedule: Q01DX009 (ip), vehicle: Klucel (hydroxypropylcellulose) (HPC)",134 % of control
CCC[N+]12C(O)C(CC)C3CC1C1N(C)c4ccc(Br)cc4C14CC2C3C4O (configuration not stated),survivor count,[6],5 of 6
CCOC(=O)C1Cc2c([nH]c(=O)[nH]c2=O)OC1c1cccc(Cl)c1 (configuration not stated),T/C,[5],127 % of control
CNC=O,survivor count,"dose: 7.5 mg/kg/injection, schedule: Q01DX010 (ip), vehicle: saline",6 of 6
Cc1cc(N(C)C)cc(C)c1N=Nc1cc[n+]([O-])cc1,survivor count,[6],2 of 6
same,survivor count,"dose: 400.0 mg/kg/injection, schedule: Q01DX009 (ip), vehicle: saline with Tween-80",0 of 6
